Experimental data as given in the supplement of paper PMC10849652.
The list shows a part of the results.

Protein sequences, listed by entry. Tags and fused reporters are not part of them. Lines headed by an entry give the natural chain unless they say otherwise; changes in a name come on top.
UniProt O60361, whole entry, looked up: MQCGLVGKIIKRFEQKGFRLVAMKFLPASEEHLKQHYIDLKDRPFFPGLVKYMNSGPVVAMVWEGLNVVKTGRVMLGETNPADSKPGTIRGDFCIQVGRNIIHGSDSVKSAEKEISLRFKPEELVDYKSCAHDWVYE
UniProt Q96L73: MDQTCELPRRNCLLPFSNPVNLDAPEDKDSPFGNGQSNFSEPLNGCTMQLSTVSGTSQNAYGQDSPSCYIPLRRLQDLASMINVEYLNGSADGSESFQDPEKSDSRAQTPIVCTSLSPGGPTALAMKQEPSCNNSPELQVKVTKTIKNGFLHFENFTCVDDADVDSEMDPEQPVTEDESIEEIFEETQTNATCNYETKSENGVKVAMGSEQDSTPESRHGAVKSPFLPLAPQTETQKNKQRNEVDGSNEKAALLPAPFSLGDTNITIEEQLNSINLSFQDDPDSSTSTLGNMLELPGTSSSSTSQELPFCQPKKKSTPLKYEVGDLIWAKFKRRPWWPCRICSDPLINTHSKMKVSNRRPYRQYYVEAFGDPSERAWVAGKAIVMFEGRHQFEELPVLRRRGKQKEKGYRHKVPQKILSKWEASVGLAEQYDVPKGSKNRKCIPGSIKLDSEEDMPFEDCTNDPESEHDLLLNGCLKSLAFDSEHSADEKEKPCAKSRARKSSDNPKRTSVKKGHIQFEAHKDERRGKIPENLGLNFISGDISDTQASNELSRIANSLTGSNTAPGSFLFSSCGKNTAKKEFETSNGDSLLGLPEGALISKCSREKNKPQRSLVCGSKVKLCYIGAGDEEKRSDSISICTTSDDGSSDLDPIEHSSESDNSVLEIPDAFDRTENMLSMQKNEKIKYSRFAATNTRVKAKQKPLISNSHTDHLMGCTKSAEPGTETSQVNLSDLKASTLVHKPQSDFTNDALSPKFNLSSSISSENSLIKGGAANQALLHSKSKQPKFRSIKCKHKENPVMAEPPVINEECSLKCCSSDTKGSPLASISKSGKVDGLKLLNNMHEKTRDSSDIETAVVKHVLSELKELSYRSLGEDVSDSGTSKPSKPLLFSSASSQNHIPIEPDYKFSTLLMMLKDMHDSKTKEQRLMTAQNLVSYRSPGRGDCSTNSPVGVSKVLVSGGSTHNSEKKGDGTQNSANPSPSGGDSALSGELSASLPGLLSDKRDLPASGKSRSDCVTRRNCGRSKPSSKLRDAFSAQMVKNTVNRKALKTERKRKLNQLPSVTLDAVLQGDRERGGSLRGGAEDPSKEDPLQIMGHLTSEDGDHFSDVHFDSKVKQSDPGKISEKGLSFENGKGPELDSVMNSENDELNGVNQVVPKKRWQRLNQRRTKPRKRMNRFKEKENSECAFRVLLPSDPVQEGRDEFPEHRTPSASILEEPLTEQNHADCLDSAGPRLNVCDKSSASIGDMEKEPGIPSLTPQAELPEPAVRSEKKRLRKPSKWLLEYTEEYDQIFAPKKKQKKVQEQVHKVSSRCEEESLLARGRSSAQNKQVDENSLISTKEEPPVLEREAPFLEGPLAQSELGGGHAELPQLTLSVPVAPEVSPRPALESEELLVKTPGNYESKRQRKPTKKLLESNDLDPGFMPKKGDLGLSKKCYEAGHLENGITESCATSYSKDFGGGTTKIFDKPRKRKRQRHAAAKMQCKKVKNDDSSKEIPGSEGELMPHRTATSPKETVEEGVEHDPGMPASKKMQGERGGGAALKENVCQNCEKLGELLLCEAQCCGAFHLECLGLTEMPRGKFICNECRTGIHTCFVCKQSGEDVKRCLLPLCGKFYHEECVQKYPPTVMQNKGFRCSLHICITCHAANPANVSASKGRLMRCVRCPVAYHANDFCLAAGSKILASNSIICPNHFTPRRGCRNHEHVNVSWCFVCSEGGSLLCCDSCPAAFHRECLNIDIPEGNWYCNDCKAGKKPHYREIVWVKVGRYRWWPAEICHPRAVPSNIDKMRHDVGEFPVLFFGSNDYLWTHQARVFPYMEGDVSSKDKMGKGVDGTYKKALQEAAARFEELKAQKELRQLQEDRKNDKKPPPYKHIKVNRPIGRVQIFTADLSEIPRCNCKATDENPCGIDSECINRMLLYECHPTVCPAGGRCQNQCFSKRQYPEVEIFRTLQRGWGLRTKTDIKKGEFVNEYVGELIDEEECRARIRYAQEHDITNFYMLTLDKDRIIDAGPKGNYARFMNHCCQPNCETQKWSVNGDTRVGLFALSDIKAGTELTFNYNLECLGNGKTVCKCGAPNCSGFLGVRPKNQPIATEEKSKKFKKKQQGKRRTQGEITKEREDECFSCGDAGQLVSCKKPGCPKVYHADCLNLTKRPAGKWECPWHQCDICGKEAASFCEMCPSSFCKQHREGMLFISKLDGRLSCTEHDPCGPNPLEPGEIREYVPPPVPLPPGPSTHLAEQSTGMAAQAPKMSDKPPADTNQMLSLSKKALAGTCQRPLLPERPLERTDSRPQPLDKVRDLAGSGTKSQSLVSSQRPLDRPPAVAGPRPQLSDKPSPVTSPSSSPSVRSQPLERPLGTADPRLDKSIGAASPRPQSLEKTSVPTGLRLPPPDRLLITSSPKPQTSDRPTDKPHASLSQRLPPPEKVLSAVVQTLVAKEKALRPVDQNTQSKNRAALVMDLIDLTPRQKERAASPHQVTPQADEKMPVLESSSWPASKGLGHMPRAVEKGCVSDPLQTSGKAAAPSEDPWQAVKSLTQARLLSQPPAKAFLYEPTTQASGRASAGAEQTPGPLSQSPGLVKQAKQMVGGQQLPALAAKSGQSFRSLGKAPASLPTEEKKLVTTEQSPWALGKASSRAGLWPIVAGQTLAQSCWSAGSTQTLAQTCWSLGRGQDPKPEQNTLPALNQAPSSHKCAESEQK
UniProt Q14978: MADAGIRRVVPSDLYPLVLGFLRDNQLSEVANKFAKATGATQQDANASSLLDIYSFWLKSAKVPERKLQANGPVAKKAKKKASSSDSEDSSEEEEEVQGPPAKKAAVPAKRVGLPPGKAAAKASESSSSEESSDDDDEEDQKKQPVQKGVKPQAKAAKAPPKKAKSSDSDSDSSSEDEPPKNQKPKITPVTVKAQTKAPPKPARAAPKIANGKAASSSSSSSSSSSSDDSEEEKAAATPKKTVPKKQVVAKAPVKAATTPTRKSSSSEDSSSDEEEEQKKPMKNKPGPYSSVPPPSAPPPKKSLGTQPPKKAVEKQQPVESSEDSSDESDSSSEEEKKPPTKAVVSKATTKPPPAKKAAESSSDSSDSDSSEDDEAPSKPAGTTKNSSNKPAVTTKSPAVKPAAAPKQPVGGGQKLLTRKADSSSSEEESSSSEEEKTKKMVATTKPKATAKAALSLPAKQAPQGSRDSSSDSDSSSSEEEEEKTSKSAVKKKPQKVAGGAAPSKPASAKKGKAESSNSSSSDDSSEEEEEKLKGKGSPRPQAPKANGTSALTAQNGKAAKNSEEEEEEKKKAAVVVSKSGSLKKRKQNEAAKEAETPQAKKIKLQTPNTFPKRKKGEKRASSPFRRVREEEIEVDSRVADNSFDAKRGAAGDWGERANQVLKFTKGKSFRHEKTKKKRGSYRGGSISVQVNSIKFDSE
UniProt P0C024: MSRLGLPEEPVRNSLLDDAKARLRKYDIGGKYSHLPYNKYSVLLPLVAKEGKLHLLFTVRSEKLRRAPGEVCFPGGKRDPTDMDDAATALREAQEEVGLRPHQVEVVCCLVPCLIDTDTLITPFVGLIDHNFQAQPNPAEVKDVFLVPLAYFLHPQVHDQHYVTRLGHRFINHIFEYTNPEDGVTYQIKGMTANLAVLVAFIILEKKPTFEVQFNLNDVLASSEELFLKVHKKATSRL
UniProt Q15155: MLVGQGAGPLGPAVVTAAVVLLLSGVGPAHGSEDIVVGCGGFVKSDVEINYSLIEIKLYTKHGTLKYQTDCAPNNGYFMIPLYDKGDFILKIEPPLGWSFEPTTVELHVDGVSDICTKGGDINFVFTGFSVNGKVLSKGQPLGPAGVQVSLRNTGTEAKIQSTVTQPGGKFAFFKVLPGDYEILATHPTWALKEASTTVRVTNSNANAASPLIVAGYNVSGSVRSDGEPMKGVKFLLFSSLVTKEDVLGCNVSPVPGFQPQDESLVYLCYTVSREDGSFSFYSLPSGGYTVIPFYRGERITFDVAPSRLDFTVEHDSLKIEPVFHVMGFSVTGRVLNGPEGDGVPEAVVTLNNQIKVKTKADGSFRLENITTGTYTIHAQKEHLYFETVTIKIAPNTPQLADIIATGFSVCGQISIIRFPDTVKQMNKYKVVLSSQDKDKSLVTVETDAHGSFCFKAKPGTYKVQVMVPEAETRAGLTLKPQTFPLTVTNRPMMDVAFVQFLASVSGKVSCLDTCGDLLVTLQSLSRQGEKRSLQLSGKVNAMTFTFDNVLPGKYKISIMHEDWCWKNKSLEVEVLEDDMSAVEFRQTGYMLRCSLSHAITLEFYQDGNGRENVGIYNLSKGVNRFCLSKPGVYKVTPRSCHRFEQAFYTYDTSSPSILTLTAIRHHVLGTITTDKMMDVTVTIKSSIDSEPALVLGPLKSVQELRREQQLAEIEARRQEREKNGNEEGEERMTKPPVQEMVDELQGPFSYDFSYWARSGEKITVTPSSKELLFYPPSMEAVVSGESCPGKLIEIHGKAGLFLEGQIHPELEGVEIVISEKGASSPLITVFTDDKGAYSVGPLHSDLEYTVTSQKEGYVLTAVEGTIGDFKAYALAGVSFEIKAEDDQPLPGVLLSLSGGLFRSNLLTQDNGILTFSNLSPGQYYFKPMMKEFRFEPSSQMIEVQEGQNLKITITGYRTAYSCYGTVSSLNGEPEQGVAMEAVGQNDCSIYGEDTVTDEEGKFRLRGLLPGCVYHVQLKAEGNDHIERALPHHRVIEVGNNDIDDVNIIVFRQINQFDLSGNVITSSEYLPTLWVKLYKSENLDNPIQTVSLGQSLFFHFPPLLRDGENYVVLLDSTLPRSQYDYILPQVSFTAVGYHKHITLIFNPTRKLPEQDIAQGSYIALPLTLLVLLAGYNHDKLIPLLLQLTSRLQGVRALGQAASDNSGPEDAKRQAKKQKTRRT
UniProt Q9BRQ3: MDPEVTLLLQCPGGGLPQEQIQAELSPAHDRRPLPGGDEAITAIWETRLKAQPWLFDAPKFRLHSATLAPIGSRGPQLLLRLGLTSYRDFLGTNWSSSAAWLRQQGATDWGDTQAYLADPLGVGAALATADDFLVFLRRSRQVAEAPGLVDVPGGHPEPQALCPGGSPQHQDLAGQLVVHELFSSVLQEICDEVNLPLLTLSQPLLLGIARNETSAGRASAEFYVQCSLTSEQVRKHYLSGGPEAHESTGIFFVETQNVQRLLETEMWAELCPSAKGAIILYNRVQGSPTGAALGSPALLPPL
UniProt P15531, whole entry, looked up: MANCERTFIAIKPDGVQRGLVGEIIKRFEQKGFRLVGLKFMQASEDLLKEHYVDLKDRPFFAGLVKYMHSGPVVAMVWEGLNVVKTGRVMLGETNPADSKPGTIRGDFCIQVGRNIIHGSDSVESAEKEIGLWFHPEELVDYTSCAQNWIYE
UniProt Q96CB9: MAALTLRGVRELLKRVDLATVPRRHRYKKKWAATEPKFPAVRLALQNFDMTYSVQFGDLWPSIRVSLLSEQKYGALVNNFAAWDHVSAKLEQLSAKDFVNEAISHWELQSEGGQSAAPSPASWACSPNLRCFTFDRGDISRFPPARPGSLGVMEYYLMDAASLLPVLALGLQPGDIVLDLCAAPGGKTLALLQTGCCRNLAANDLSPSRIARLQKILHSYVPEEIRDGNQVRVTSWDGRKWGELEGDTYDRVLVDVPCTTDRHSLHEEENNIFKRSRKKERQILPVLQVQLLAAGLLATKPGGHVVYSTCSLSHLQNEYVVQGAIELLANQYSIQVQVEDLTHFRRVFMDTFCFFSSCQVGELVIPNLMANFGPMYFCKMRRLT
UniProt O60936: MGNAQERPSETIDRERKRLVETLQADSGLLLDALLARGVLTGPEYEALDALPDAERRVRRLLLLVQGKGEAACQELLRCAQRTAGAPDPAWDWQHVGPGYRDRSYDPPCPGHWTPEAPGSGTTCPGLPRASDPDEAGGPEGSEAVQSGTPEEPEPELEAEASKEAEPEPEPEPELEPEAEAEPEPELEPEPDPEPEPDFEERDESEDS
UniProt Q96AB6: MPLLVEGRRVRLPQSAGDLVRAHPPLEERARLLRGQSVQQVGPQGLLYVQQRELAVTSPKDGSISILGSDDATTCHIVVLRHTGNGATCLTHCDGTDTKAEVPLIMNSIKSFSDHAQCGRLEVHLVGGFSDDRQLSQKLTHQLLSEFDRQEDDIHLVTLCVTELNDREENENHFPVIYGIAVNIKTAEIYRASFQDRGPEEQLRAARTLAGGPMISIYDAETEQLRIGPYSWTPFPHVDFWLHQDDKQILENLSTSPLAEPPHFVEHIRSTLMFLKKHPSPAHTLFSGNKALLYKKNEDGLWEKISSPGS
UniProt Q8WV74: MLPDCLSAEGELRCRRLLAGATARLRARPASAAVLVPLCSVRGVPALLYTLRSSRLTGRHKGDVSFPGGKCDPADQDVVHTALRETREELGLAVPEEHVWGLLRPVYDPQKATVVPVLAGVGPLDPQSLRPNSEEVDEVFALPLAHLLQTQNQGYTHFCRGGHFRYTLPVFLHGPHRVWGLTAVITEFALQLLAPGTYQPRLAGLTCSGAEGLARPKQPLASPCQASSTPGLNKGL

How the values were obtained:
Experiment in all cases: log2 fold change, soluble protein after heating vs DMSO (PISA); higher = thermal stabilisation; K562 lysate, 10 uM; active = over 0.2 and 3.5 SD of the protein, either way, in both replicates (recomputed)
erlotinib = compound: C#Cc1cccc(Nc2ncnc3cc(OCCOC)c(OCCOC)cc23)c1 [erlotinib]
Procedure, shortened: (§1)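 K562 pellets were dounce-homogenised in PBS pH 7.4 with 1 mM MgCl2, and the crude extract at 1 mg/mL protein was treated with 10 μM compound for 30 min. Aliquots were heated for 3 min across 48°C-58°C, pooled, and brought to 0.5% NP-40 at 4°C; soluble protein was the supernatant after 21,000xg for 90 min. Soluble protein was quantified by TMTpro 16plex LC-MS/MS with channel sums equalised, and reported as log2 fold change in thermal stability against DMSO controls, with values from duplicates.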

[1] = compound: C/C(=N\NC(=O)C1=CC(=CC=C1)S(=O)(=O)N2CCOCC2)/C3=C(C=CC(=C3)Cl)O
Procedure, shortened: as §1

[2] = compound: C1=CC(=CC=C1C2=NC3=C(N2)C=C(C=C3)C(=O)N)OC4=CC=C(C=C4)Cl
Procedure, shortened: as §1

[3] = compound: C1=CC2=C(C=CC(=C2)/C=C\3/C(=O)NC(=NCC4=CC=CS4)S3)N=C1
Procedure, shortened: as §1

[4] = compound: C1=CC2=NC=CN=C2C=C1/C=C/3\C(=O)NC(=O)S3
Procedure, shortened: as §1

[5] = compound: C1=CC=C(C=C1)C2=NC(=C(N2)C3=CC=NC=C3)C4=CC(=C(C=C4)Cl)O
Procedure, shortened: as §1

[6] = compound: C1=CC=C2C(=C1)C3=NNC4=CC=CC(=C43)C2=O
Procedure, shortened: as §1

IRAK-1-4 Inhibitor I = compound: C1COCCN1CCN2C3=CC=CC=C3N=C2NC(=O)C4=CC(=CC=C4)[N+](=O)[O-] [IRAK-1-4 Inhibitor I]
Procedure, shortened: as §1

ibrutinib = compound: C=CC(=O)N1CCC[C@@H](n2nc(-c3ccc(Oc4ccccc4)cc3)c3c(N)ncnc32)C1 [ibrutinib]
Procedure, shortened: as §1

[7] = compound: CC(=O)c1cnc2ccc(-c3cc(Cl)c(O)c(Cl)c3)nc2c1N[C@H]1CC[C@H](CN(C)C)CC1
Procedure, shortened: as §1

ralimetinib = compound: CC(C)(C)Cn1c(N)nc2ccc(-c3[nH]c(C(C)(C)C)nc3-c3ccc(F)cc3)nc21 [ralimetinib]
Procedure, shortened: as §1

[8] = compound: CC(C)(O)CC(=O)NCCn1ccc2ncnc(Nc3ccc(Oc4cccc(C(F)(F)F)c4)c(Cl)c3)c21
Procedure, shortened: as §1

[9] = compound: CC(C)C1=C2N=C(C=C(N2N=C1)NCC3=CC=CC=C3)NCCCCCCN
Procedure, shortened: as §1

[10] = compound: CC1=C(C(CC(=O)N1)C2=CC=C(C=C2)C(F)(F)F)C(=O)NC3=C(C=C4C(=C3)C=NN4)F
Procedure, shortened: as §1

[11] = compound: CC1=C(C2=C(C=C1)C(=O)C3=CC=CC=C3N2CCCN)C
Procedure, shortened: as §1

[12] = compound: CC1=C(C=C(C=C1)NC(=O)C2=CC(=CC=C2)C(C)(C)C#N)NC3=CC4=C(C=C3)N=CN(C4=O)C
Procedure, shortened: as §1

[13] = compound: CC1=C(C=C(C=C1)NC(=O)C2=CC(=CC=C2)N(C)C)NC(=O)C3=CC=C(C=C3)O
Procedure, shortened: as §1

[14] = compound: CC1=CC=C(C=C1)SC2=C3C=C(SC3=CN=C2)C(=O)N
Procedure, shortened: as §1

[15] = compound: C1CCN(C1)C(=O)NC2=CC=CC(=C2)NC3=NC=C(C(=N3)NCCC4=CN=CN4)Br
Procedure, shortened: as §1

[16] = compound: C1CN(CCC1(CC2=CC=C(C=C2)Cl)N)C3=NC=NC4=C3C=CN4
Procedure, shortened: as §1

Measured: log2 fold change

NME2P1 (UniProt O60361)
inactive: erlotinib 0.007 | [1] -0.112 | [2] -0.006 | [3] -0.127 | [4] -0.037 | [5] -0.036 | [6] -0.108 | IRAK-1-4 Inhibitor I 0.073 | ibrutinib 0.009 | [7] -0.007 | ralimetinib -0.019 | [8] -0.199 | [9] 0.037 | [10] 0.004 | [11] -0.038 | [12] -0.031 | [13] 0.154 | [14] -0.112

NSD1 (UniProt Q96L73)
inactive: erlotinib -0.026 | [1] 0.018 | [2] 0.001 | [3] 0.045 | [5] -0.001 | [6] 0.069 | [15] -0.025 | [16] -0.003 | IRAK-1-4 Inhibitor I 0.076 | [7] -0.011 | ralimetinib 0.015 | [8] -0.019 | [9] -0.042 | [10] 0.069 | [11] -0.091 | [13] 0.016 | [14] 0.008

NOLC1 isoform 3 (UniProt Q14978)
inactive: erlotinib -0.113 | [2] 0.088 | [4] 0.179 | [5] -0.069 | [15] 0.013 | [16] 0.066 | IRAK-1-4 Inhibitor I 0.037 | ibrutinib 0.226 | [7] -0.009 | ralimetinib -0.065 | [8] -0.04 | [9] -0.018 | [11] 0 | [12] -0.047 | [13] 0.01 | [14] -0.03

NUDT7 (UniProt P0C024)
inactive: erlotinib 0.036 | [1] -0.048 | [2] 0 | [3] 0.025 | [4] -0.009 | [5] 0.036 | [6] 0.017 | [15] 0.014 | [16] -0.012 | IRAK-1-4 Inhibitor I -0.058 | ibrutinib -0.037 | [7] 0.158 | ralimetinib -0.083 | [8] -0.204 | [9] 0.051 | [11] 0.002 | [12] 0.046 | [13] -0.106 | [14] 0.12

Taken from the listing (3 entries):
NSD1 (UniProt Q96L73)
inactive: erlotinib -0.026 | [1] 0.018 | [2] 0.001 | [3] 0.045 | [5] -0.001 | [6] 0.069 | [15] -0.025 | [16] -0.003 | IRAK-1-4 Inhibitor I 0.076 | [7] -0.011 | ralimetinib 0.015 | [8] -0.019 | [9] -0.042 | [10] 0.069 | [11] -0.091 | [13] 0.016 | [14] 0.008

NOLC1 isoform 3 (UniProt Q14978)
inactive: erlotinib -0.113 | [2] 0.088 | [4] 0.179 | [5] -0.069 | [15] 0.013 | [16] 0.066 | IRAK-1-4 Inhibitor I 0.037 | ibrutinib 0.226 | [7] -0.009 | ralimetinib -0.065 | [8] -0.04 | [9] -0.018 | [11] 0 | [12] -0.047 | [13] 0.01 | [14] -0.03

NUDT7 (UniProt P0C024)
inactive: erlotinib 0.036 | [1] -0.048 | [2] 0 | [3] 0.025 | [4] -0.009 | [5] 0.036 | [6] 0.017 | [15] 0.014 | [16] -0.012 | IRAK-1-4 Inhibitor I -0.058 | ibrutinib -0.037 | [7] 0.158 | ralimetinib -0.083 | [8] -0.204 | [9] 0.051 | [11] 0.002 | [12] 0.046 | [13] -0.106 | [14] 0.12

Next entries follow:

NOMO1 (UniProt Q15155)
inactive: erlotinib -0.012 | [2] 0.044 | [4] 0.02 | [5] -0.041 | [15] 0.14 | [16] -0.038 | IRAK-1-4 Inhibitor I 0.073 | ibrutinib -0.024 | [7] -0.021 | ralimetinib -0.061 | [8] -0.119 | [9] -0.093 | [10] -0.013 | [11] 0.009 | [12] 0.07 | [13] 0.083 | [14] 0.001

NUDT22 (UniProt Q9BRQ3)
inactive: erlotinib -0.038 | [1] 0.034 | [2] -0.129 | [3] -0.004 | [6] 0.019 | [15] 0.247 | [16] -0.045 | [7] -0.023 | [9] 0.014 | [10] 0.07 | [12] -0.048 | [14] 0.012

NME1 isoform 2 (UniProt P15531)
inactive: erlotinib 0.002 | [1] 0.184 | [2] -0.079 | [3] -0.052 | [4] -0.029 | [5] -0.03 | [6] 0.132 | [15] 0.065 | [16] 0.001 | IRAK-1-4 Inhibitor I -0.015 | ibrutinib 0.028 | [7] -0.029 | ralimetinib 0 | [8] -0.013 | [9] 0.032 | [11] -0.034 | [12] 0.039 | [13] -0.006 | [14] 0.012

NSUN4 (UniProt Q96CB9)
inactive: erlotinib 0.025 | [1] -0.376 | [2] 0.101 | [3] 0.207 | [4] 0 | [5] 0.359 | [6] 0.218 | IRAK-1-4 Inhibitor I 0.133 | ibrutinib -0.026 | [7] -0.087 | ralimetinib 0.108 | [8] -0.089 | [9] 0.177 | [10] -0.099 | [11] -0.09 | [12] -0.023 | [13] -0.034 | [14] 0.228

NR3C1 isoform 3 (UniProt P04150)
inactive: erlotinib 0.061 | [1] -0.019 | [2] -0.058 | [3] -0.075 | [4] 0.09 | [5] 0.044 | [15] 0.047 | [16] -0.064 | IRAK-1-4 Inhibitor I -0.059 | ibrutinib -0.168 | [7] -0.019 | ralimetinib -0.076 | [8] 0.04 | [9] 0.008 | [10] -0.031 | [11] 0.104 | [12] 0.024 | [13] -0.033 | [14] 0.055

NSA2 (UniProt O95478)
inactive: erlotinib -0.015 | [1] -0.15 | [2] 0.009 | [3] -0.102 | [4] -0.05 | [5] -0.002 | [6] -0.016 | [15] 0.157 | [16] 0.109 | IRAK-1-4 Inhibitor I -0.006 | ibrutinib 0.154 | [7] 0.068 | ralimetinib 0.012 | [8] 0.082 | [9] 0.01 | [10] -0.043 | [11] 0.223 | [13] -0.155 | [14] -0.027

NOL3 isoform 3 (UniProt O60936)
inactive: erlotinib 0.271 | [1] -0.117 | [2] 0.139 | [3] -0.112 | [5] 0.114 | [6] -0.101 | IRAK-1-4 Inhibitor I 0.026 | [7] 0.03 | ralimetinib -0.045 | [8] -0.037 | [9] 0.037 | [10] -0.334 | [11] -0.031 | [12] -0.158 | [13] -0.204 | [14] -0.151

NTAN1 (UniProt Q96AB6)
inactive: erlotinib 0.094 | [1] 0.08 | [2] -0.01 | [3] 0.22 | [4] -0.022 | [5] -0.026 | [6] -0.099 | [15] -0.378 | [16] 0.159 | IRAK-1-4 Inhibitor I 0 | ibrutinib 0.085 | ralimetinib -0.028 | [8] -0.123 | [9] -0.014 | [11] 0.022 | [12] 0.012 | [13] -0.007

NUDT8 (UniProt Q8WV74)
inactive: erlotinib 0.086 | [1] 0.107 | [2] 0.055 | [3] 0.124 | [5] 0.126 | [6] -0.118 | [15] 0.064 | [16] -0.012 | IRAK-1-4 Inhibitor I -0.027 | [7] -0.092 | ralimetinib -0.034 | [8] 0.062 | [9] 0.081 | [10] -0.089 | [11] -0.055 | [12] 0.084 | [13] -0.028 | [14] 0.093
